Cleaved PARP in drug-treated melanoma cells

From a melanoma drug combination screen (doi:10.1371/journal.pone.0140310); values rounded.

Drugs:
everolimus (0.1 µM): CO[C@H]1C[C@@H]2CC[C@@H](C)[C@@](O)(O2)C(=O)C(=O)N2CCCC[C@H]2C(=O)O[C@H]([C@H](C)C[C@@H]2CC[C@@H](OCCO)[C@H](OC)C2)CC(=O)[C@H](C)/C=C(\C)[C@@H](O)[C@@H](OC)C(=O)[C@H](C)C[C@H](C)/C=C/C=C/C=C/1C
KU-0063794 (0.1 µM): COc1ccc(-c2ccc3c(N4CCOCC4)nc(N4C[C@@H](C)O[C@@H](C)C4)nc3n2)cc1CO
U73122 (2 µM): COc1ccc2c(c1)CCC1C2CCC2(C)C(NCCCCCCN3C(=O)C=CC3=O)CCC12 (stereo not given)
palbociclib (0.2 µM): CC(=O)c1c(C)c2cnc(Nc3ccc(N4CCNCC4)cn3)nc2n(C2CCCC2)c1=O
pioglitazone (10 µM): CCc1ccc(CCOc2ccc(CC3SC(=O)NC3=O)cc2)nc1 (stereo not given)
OSU-03012 (5 µM): NCC(=O)Nc1ccc(-n2nc(C(F)(F)F)cc2-c2ccc3c(ccc4ccccc43)c2)cc1
erlotinib (4 µM): C#Cc1cccc(Nc2ncnc3cc(OCCOC)c(OCCOC)cc23)c1

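The test systems are human melanoma cell lines, treated with two drugs together for 72 h and then stained and imaged. Values are the share of nuclei positive for cleaved PARP as a percentage of the same share in the DMSO control: 100 is the control level, higher means more apoptosis. Every drug was used at one fixed concentration, the higher of two screened. These are primary screening values without error estimates. The marker varies much from line to line, for technical or biological reasons.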
An unselected part of the screen is shown.

Pair | WM115 | MeWo | A101D | COLO 829 | COLO 800 | C32
OSU-03012 and palbociclib | 147 | 46.0 | 1280 | 78.8 | 65.1 | 124
everolimus and KU-0063794 | 159 | 179 | 670 | 166 | 63.8 | 85.1
pioglitazone and palbociclib | 83.2 | 136 | 171 | 117 | 98.4 | 110
OSU-03012 and everolimus | 97.8 | 78.5 | 58.4 | 192 | 217 | 212
OSU-03012 and pioglitazone | 109 | 47.6 | 56.1 | 141 | 73.5 | 199
OSU-03012 and erlotinib | 107 | 160 | 87.5 | 241 | 223 | 56.3
KU-0063794 and erlotinib | 36.8 | 128 | 50.5 | 25.0 | 71.3 | 96.8
U73122 and palbociclib | 42.8 | 74.4 | 44.7 | 47.3 | 132 | 149
pioglitazone and everolimus | 84.5 | 48.4 | 101 | 50.7 | 100 | 85.2
OSU-03012 and KU-0063794 | 42.3 | 74.6 | 55.0 | 123 | 160 | 83.4
U73122 and erlotinib | 131 | 193 | 333 | 124 | 60.7 | 132
palbociclib and everolimus | 24.4 | 84.3 | 60.9 | 196 | 211 | 380
erlotinib and everolimus | 409 | 127 | 88.2 | 85.5 | 86.6 | 170
KU-0063794 and pioglitazone | 101 | 74.4 | 30.3 | 96.9 | 59.7 | 98.1
erlotinib and palbociclib | 96.6 | 80.8 | 38.4 | 130 | 127 | 50.8
KU-0063794 and U73122 | 135 | 99.3 | 179 | 173 | 208 | 106
pioglitazone and U73122 | 126 | 67.5 | 85.3 | 93.4 | 64.8 | 295
U73122 and everolimus | 195 | 238 | 147 | 222 | 111 | 144
palbociclib and KU-0063794 | 72.9 | 142 | 58.6 | 150 | 159 | 96.2
pioglitazone and erlotinib | 150 | 64.7 | 56.8 | 198 | 279 | 96.8

2 of the entries, repeated:

{"pair": "OSU-03012 and erlotinib", "WM115": 107, "MeWo": 160, "A101D": 87.5, "COLO 829": 241, "COLO 800": 223, "C32": 56.3}
{"pair": "pioglitazone and everolimus", "WM115": 84.5, "MeWo": 48.4, "A101D": 101, "COLO 829": 50.7, "COLO 800": 100, "C32": 85.2}